In PubChem BioAssay AID977630 (Broad Institute, 2014):
Fewer than 10 of roughly 1,600 compounds were called active. About 48% were inconclusive and are not listed.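 The calls were made as follows: active = Normal-ribosome green reporter loss at least double humanized-ribosome red reporter loss, with overall culture growth inhibition under a set limit; inconclusive = no clear call, values can overlap the other calls; inactive = the rest.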 The entries are a selection whose mix differs from that of the whole data set. Entries with a potency or affinity are not part of this list.

Assay: growth inhibition of wild-type GFP E. coli, H38-humanized RFP comparator, dose response, H38 mutant RFP vs wild-type GFP, cherry-pick (AID 977630);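 also: wild-type GFP strain mixed equally with humanized-ribosome H38 mutant expressing RFP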
Conditions: mixed culture, 24 h; at 50 µM (top of the series)

Activity change, negative = inhibition, inactive:
CCn1c(SCC(=O)Nc2ccc(OC)cc2)nc2nc3c(cc2c1=O)CCCC3 -12.5
O=C(CCCOc1ccccc1)NCCc1nc2ccccc2[nH]1 0.362
CC(C)(C)S(=O)(=O)Cc1nc(-c2ccc(Cl)c(Cl)c2)cs1 -9.14
Cc1onc(-c2ccccc2Cl)c1C(=O)OCC(=O)c1ccccc1 -2.63
CC(=O)Oc1ccc(N(c2ccccc2)S(=O)(=O)c2ccc(C)cc2)cc1 -7.09
CN(Cc1c(F)cccc1Cl)C(=O)c1ccc(NS(=O)(=O)c2ccc3[nH]c(=O)[nH]c3c2)cc1 1.93
CCCCOc1ccc(-c2nnn(CCC(=O)N3CCOCC3)n2)cc1 -6.25
CNC(=O)c1ccsc1NC(=O)c1ccc(S(=O)(=O)N2CCc3ccccc32)cc1 -17.7
CN(c1ccc(C(=O)NCc2cccs2)cc1)S(=O)(=O)c1ccccc1 -1.34
CCc1ccc2nc(SCC(=O)Nc3ccccc3N3CCOCC3)c(C#N)cc2c1 26.5
CCc1c(N=O)c(-c2ccccc2)n(O)[n+]1[O-] -11.5
O=C(Nc1ccc(Br)cc1)c1cccnc1N1CCCCC1 -2.35
O=c1c2ccccc2cnn1Cc1n[nH]c(=S)n1C1CC2CCC1C2 (centres undefined) -3.93
Cc1ccc2c(N)c(C(=O)c3ccccc3)sc2n1 -6.67
COc1ccccc1N1CCN(Cc2ccc(OC)c3ccccc23)CC1 -2.23
Cc1ccc(N2C(=S)NC3c4cc(Cl)ccc4OC2(C)C3C(=O)N(C)C)cc1 (centres undefined) -10.2
O=S(=O)(Cc1ccco1)Cc1nc(-c2ccc(Cl)cc2)cs1 -12
O=C(Nc1ccccc1N1CCOCC1)C1CCCCN1S(=O)(=O)c1ccccc1 (centres undefined) -15.6
COc1ccccc1CC(=O)NCCc1c[nH]c2ccccc12 -5.01
CSc1ccccc1C(=O)NCCc1ccc(S(=O)(=O)N2CCCCC2)cc1 -4.84
COC(=O)c1ccsc1NC(=O)c1cccc(OC)c1 -8.8
Cc1ccc(C(=O)NCC(=O)OCC(=O)Nc2cccc(S(=O)(=O)N3CCCC3)c2)cc1C -4.28
Cc1cccc(NC(=O)c2nc(S(=O)(=O)Cc3ccccc3)ncc2Cl)c1 -4.84
CN(C)S(=O)(=O)c1cccc(C(=O)Nc2ccc(C(=O)Nc3cccc(S(N)(=O)=O)c3)cc2)c1 -13.6
Cc1ncoc1C(=O)NCCC(c1ccccc1)c1ccccc1 -18.2
CCOc1ccc2nc(N(CCN(C)C)C(=O)c3ccc4ccccc4c3)sc2c1 -11.3
COc1cc[n+]([O-])cc1[N+](=O)[O-] 5.53
COc1ccc(CN(C)C(=O)c2cc(-c3ccc(OC)c(OC)c3)nc3ccccc23)c(OC)c1 -3.82
Cc1cc(C)c(NC(=O)C(C)c2cccc(C(=O)c3ccccc3)c2)c(C)c1 (centres undefined) -14.8
COc1ccc(-c2nc(C3CCCCC3)no2)cc1OC -8.9
COc1cc(CC(=O)Nc2nc(C)cs2)cc(OC)c1OC -5.62
CC(=O)Cc1cc(O)c2ccccc2c1OC(=O)c1ccc(Br)cc1 4.43
O=C(COC(=O)CNC(=O)c1ccc(F)cc1)Nc1cccc(S(=O)(=O)N2CCCC2)c1 -9.73
Cc1ccc(-c2c[n+](CC(=O)Nc3ccccc3)c3n2CCC3)cc1 -1.85

3 entries picked at random from the list so far, as already listed:
Activity change, negative = inhibition, inactive:
CCc1ccc2nc(SCC(=O)Nc3ccccc3N3CCOCC3)c(C#N)cc2c1 26.5
Cc1ccc(C(=O)NCC(=O)OCC(=O)Nc2cccc(S(=O)(=O)N3CCCC3)c2)cc1C -4.28
CSc1ccccc1C(=O)NCCc1ccc(S(=O)(=O)N2CCCCC2)cc1 -4.84
